According to PubChem BioAssay AID720542 (National Center for Advancing Translational Sciences (NCATS), 2013):
About 740 (0.21%) of roughly 360,000 compounds were called active. These results got no clear call from the source, so the numbers are uncertain. Calls come from the whole dose curve; as a rule, active = well fitted inhibition curve with a large enough effect; inconclusive = small, poorly fitted or top-dose-only effect; inactive = no such curve, though single readings can be large or run the other way.

Tested on: Plasmodium falciparum AMA1 (3D7) - RON2 peptide interaction
Assay: qHTS for Inhibitors of AMA1-RON; Towards Development of Antimalarial Drug Lead: Primary Screen; note: nearly all actives have a fitted effect of over 45% in size
Settings: AlphaScreen AMA1-biotinylated RON2 peptide binding
Potency is the fitted concentration of half-maximal effect.

Structure (SMILES)	Potency
CCc1ccc(OP(C)(=O)N2CCN(c3ccc([N+](=O)[O-])cc3)CC2)cc1 (configuration not stated)	inconclusive: 1.26 µM
O=[N+]([O-])c1cc([N+](=O)[O-])c(-c2cnn(-c3ccccc3)c2)c([N+](=O)[O-])c1	inconclusive: 5.62 µM
